Source: PMC4776140, “Stimulation of translation by human Unr requires cold shock domains 2 and 4, and correlates with poly(A) binding protein interaction” (Scientific Reports, 2016)
No constants are given. Whether binding was seen depends on the method and setting. In cells and extracts the contact can be indirect. Some entries that bind do so weakly or less than the wild type. Blank lines part the entries; values can stand above or below the molecule they belong to.

Chains of the proteins cited; added tags and fusions are not shown.
UniProt P11940: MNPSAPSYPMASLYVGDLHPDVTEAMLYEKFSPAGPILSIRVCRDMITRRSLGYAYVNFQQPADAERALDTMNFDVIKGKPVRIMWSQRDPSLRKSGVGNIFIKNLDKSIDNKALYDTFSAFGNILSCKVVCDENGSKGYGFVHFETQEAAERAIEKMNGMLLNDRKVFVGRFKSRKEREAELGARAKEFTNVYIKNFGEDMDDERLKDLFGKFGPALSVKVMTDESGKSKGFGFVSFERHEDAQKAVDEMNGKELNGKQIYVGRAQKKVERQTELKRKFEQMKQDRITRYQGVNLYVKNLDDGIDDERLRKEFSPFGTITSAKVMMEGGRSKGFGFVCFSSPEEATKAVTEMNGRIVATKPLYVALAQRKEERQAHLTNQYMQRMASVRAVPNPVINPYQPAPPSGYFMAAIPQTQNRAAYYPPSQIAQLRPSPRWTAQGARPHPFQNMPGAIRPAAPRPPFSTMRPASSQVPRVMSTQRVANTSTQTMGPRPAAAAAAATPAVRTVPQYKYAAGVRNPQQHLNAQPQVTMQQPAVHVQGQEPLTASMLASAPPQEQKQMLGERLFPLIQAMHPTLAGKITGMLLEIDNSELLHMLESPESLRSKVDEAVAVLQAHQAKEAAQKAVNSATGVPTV

What was measured:
[1] = target: T1, endogenous Unr (human (endogenous in HeLa)) (UniProt O75534); experiment: co-IP; IP with anti-Unr (anti-CSDE1 rabbit pAb) on Dynabeads Protein A from untreated HeLa lysate, 4 hr at 4 °C, NT2 buffer; western blot
T1 sequence: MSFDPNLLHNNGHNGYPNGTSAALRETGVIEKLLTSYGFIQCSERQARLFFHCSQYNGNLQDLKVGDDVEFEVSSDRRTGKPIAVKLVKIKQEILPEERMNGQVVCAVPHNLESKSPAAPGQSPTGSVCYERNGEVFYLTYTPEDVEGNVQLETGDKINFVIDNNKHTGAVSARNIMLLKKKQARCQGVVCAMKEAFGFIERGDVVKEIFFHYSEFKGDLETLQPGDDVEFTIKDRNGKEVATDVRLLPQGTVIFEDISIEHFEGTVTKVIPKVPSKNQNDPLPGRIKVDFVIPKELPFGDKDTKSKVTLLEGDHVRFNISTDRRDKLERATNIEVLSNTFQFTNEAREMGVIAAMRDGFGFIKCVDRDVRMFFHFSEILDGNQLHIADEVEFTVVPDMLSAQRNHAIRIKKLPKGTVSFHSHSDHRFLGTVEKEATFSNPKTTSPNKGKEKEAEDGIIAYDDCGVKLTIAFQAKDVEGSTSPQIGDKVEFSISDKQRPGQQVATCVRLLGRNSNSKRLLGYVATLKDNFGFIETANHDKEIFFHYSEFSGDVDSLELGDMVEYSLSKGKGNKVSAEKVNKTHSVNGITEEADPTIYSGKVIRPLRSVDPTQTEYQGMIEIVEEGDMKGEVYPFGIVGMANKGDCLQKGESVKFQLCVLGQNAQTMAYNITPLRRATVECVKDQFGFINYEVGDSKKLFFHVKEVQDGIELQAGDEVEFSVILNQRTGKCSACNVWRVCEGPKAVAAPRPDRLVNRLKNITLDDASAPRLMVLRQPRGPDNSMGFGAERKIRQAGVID

[2] = target: T1, endogenous Unr (human (endogenous in HeLa)); experiment: co-IP; IP with anti-Unr from untreated HeLa lysate in the presence of 0.1 mg/ml RNase A (30 min at room temperature before IP); western blot
GST-tagged PABP1 = target: T2, GST-tagged PABP1 (UniProt P11940 1-636); experiment: pull-down; 2 ug GST-PABP1 (or GST) on glutathione Sepharose 4B; 10 ul 35S-labelled TnT reaction added, 1 hr at 4 °C; 50 mM Tris pH 7.5, 100 mM KCl, 0.5 mM EDTA, 0.1% NP40, 1 mM DTT, 1 mM benzamidine; autoradiography, ImageJ, normalised against inputs, relative to wt Unr on GST-PABP1; only the target purified
T2 construct: also called GST-PABP1; source: E. coli BL21(DE3) from pGEX2T, purified (glutathione Sepharose 4B)

binding [1]: binds
binding [2]: binds
Molecule: endogenous PABP1 (from UniProt P11940 1-636)

binding (GST-tagged PABP1): binds
B1: wild type Unr, in vitro translated, 35S-labelled (natural protein, human, UniProt O75534-2 1-767, looked up)
chain: MSFDPNLLHNNGHNGYPNGTSAALRETGVIEKLLTSYGFIQCSERQARLFFHCSQYNGNLQDLKVGDDVEFEVSSDRRTGKPIAVKLVKIKQEILPEERMNGQEVFYLTYTPEDVEGNVQLETGDKINFVIDNNKHTGAVSARNIMLLKKKQARCQGVVCAMKEAFGFIERGDVVKEIFFHYSEFKGDLETLQPGDDVEFTIKDRNGKEVATDVRLLPQGTVIFEDISIEHFEGTVTKVIPKVPSKNQNDPLPGRIKVDFVIPKELPFGDKDTKSKVTLLEGDHVRFNISTDRRDKLERATNIEVLSNTFQFTNEAREMGVIAAMRDGFGFIKCVDRDVRMFFHFSEILDGNQLHIADEVEFTVVPDMLSAQRNHAIRIKKLPKGTVSFHSHSDHRFLGTVEKEATFSNPKTTSPNKGKEKEAEDGIIAYDDCGVKLTIAFQAKDVEGSTSPQIGDKVEFSISDKQRPGQQVATCVRLLGRNSNSKRLLGYVATLKDNFGFIETANHDKEIFFHYSEFSGDVDSLELGDMVEYSLSKGKGNKVSAEKVNKTHSVNGITEEADPTIYSGKVIRPLRSVDPTQTEYQGMIEIVEEGDMKGEVYPFGIVGMANKGDCLQKGESVKFQLCVLGQNAQTMAYNITPLRRATVECVKDQFGFINYEVGDSKKLFFHVKEVQDGIELQAGDEVEFSVILNQRTGKCSACNVWRVCEGPKAVAAPRPDRLVNRLKNITLDDASAPRLMVLRQPRGPDNSMGFGAERKIRQAGVID
modifications: radiolabelled with [35S] methionine
notes: numbers count on: Unr protein isoform 2; Same pET21d plasmids as for the histidine-tagged recombinant Unr; also called wt Unr; CSDE1; source: in vitro transcribed/translated from pET21d plasmid (TnT Quick Coupled System, Promega), not purified
